The list shows only some results of the screen, not a fair sample: it gathers tests that were run many times, whatever their T/C, doses with no T/C, and many T/C values between a quarter and a half above the control. Further doses and runs are listed elsewhere. T/C is the treated group as % of the vehicle group. Some doses have a count of surviving animals in place of a T/C: the source files T/C as zero there, which appears to mark a toxic dose or a test without result, not a measured value. Some doses without a T/C left all or most animals alive at the check, yet need not have been tolerated: survival well below the control is almost never listed, so the zero probably covers shortened survival too. Survivors were counted at the toxicity check, usually on the fifth day, unless a day is given; later deaths do not show. Schedules are NCI's codes, taken here to give the interval after Q, in days (D) or hours (H), and the number of doses after X. Some entries were tested several times; the values are given in rising order. For survival time, the PubChem record calls one and a half times the control and up active, and a quarter to a half above the control has no call in these data; cut-offs in other NCI protocols can differ. Some T/C values carry the count of animals alive at the toxicity check (mostly the fifth day); without a count, all were alive then.
Test system: P388 leukemia ip, CD2F1 mice, survival T/C
Experiment: NCI In Vivo Anticancer Drug Screen. Data for tumor model P388 Leukemia (intraperitoneal) in CD2F1 (CDF1) mice
Conditions: T/C endpoint: median survival time, higher T/C = longer survival
[1] = dose: 100.0 mg/kg/injection, schedule: Q01DX009 (ip), vehicle: saline with Tween-80
[2] = dose: 200.0 mg/kg/injection, schedule: Q01DX005 (ip), vehicle: saline with Tween-80
[3] = dose: 400.0 mg/kg/injection, schedule: Q01DX005 (ip), vehicle: saline with Tween-80
[4] = dose: 100.0 mg/kg/injection, schedule: Q01DX009 (ip), vehicle: saline
[5] = dose: 100.0 mg/kg/injection, schedule: Q01DX009 (ip), vehicle: Klucel (hydroxypropylcellulose) (HPC)
[6] = dose: 200.0 mg/kg/injection, schedule: Q01DX009 (ip), vehicle: Klucel (hydroxypropylcellulose) (HPC)
[7] = dose: 400.0 mg/kg/injection, schedule: Q01DX009 (ip), vehicle: Klucel (hydroxypropylcellulose) (HPC)
[8] = dose: 240.0 mg/kg/injection, schedule: Q01DX005 (ip), vehicle: saline with Tween-80
[9] = dose: 50.0 mg/kg/injection, schedule: Q01DX009 (ip), vehicle: saline with Tween-80
[10] = dose: 200.0 mg/kg/injection, schedule: Q01DX009 (ip), vehicle: saline with Tween-80
[11] = dose: 200.0 mg/kg/injection, schedule: Q01DX009 (ip), vehicle: saline
[12] = dose: 100.0 mg/kg/injection, schedule: Q01DX005 (ip), vehicle: Klucel (hydroxypropylcellulose) (HPC)
[13] = dose: 200.0 mg/kg/injection, schedule: Q01DX005 (ip), vehicle: Klucel (hydroxypropylcellulose) (HPC)

CC(C)(C)c1ccc(OP(=S)(N/N=C/c2ccccc2O)Oc2ccc(C(C)(C)C)cc2)cc1
survivor count [1]: 6 of 6

O=C(Cn1nnc(N2CCCCC2)n1)N/N=C/c1ccccc1O
survivor count (dose: 60.0 mg/kg/injection, schedule: Q01DX005 (ip), vehicle: Klucel (hydroxypropylcellulose) (HPC)): 6 of 6 | survivor count (dose: 120.0 mg/kg/injection, schedule: Q01DX005 (ip), vehicle: Klucel (hydroxypropylcellulose) (HPC)): 6 of 6

Cc1cc(N)ccc1N=Nc1ccc(N=Nc2ccc(N=Nc3ccc4cc(S(=O)(=O)O)cc(S(=O)(=O)O)c4c3)c(C)c2)c(C)c1
T/C (dose: 50.0 mg/kg/injection, schedule: Q01DX005 (ip), vehicle: saline with Tween-80): 127 % of control | T/C [2]: 126 [5 of 6 alive] and 131 % of control | T/C [3]: 134 % of control [4 of 6 alive] | survivor count [3]: 5 of 6

CC(C)C1C(=O)NC(c2ccc(N)cc2)c2ccccc21 (stereo unspecified)
survivor count [4]: 6 of 6

O=[N+]([O-])C(Br)(CO)CCC(Br)(CO)[N+](=O)[O-] (stereo unspecified)
survivor count (dose: 50.0 mg/kg/injection, schedule: Q01DX001 (ip), vehicle: Klucel (hydroxypropylcellulose) (HPC)): 0 of 6 | survivor count (dose: 100.0 mg/kg/injection, schedule: Q01DX001 (ip), vehicle: Klucel (hydroxypropylcellulose) (HPC)): 0 of 6 | survivor count (dose: 200.0 mg/kg/injection, schedule: Q01DX001 (ip), vehicle: Klucel (hydroxypropylcellulose) (HPC)): 0 of 6

CCN(CC)CCN(CC)c1ccc(/C=C/c2ccnc3ccccc23)cc1
survivor count [5]: 0 of 6 | survivor count [6]: 0 of 6 | survivor count [7]: 0 of 6

C=CCOc1nc(OCC=C)nc(OCC=C)n1
survivor count (dose: 400.0 mg/kg/injection, schedule: Q01DX009 (ip), vehicle: saline with Tween-80): 1 of 6

CCOC(=O)/C=C/c1nc(C(=O)OCC)c(C)c(=O)[nH]1
survivor count (dose: 25.0 mg/kg/injection, schedule: Q01DX009 (ip), vehicle: distilled water + Tween-80): 6 of 6 | survivor count (dose: 50.0 mg/kg/injection, schedule: Q01DX009 (ip), vehicle: distilled water + Tween-80): 6 of 6 | survivor count (dose: 100.0 mg/kg/injection, schedule: Q01DX009 (ip), vehicle: distilled water + Tween-80): 6 of 6

C[n+]1c(-c2ccc(/C=N\Nc3nnc(S)n3/N=C/c3ccc(-c4cn5ccccc5[n+]4C)cc3)cc2)cn2ccccc21
survivor count (dose: 7.5 mg/kg/injection, schedule: Q01DX005 (ip), vehicle: saline with Tween-80): 0 of 6 | survivor count (dose: 15.0 mg/kg/injection, schedule: Q01DX005 (ip), vehicle: saline with Tween-80): 0 of 6 | survivor count (dose: 30.0 mg/kg/injection, schedule: Q01DX005 (ip), vehicle: saline with Tween-80): 0 of 6 | survivor count (dose: 60.0 mg/kg/injection, schedule: Q01DX005 (ip), vehicle: saline with Tween-80): 0 of 6 | survivor count (dose: 120.0 mg/kg/injection, schedule: Q01DX005 (ip), vehicle: saline with Tween-80): 0 of 6 | survivor count [8]: 0 of 6

O=C1c2ccccc2C(=O)c2c1oc1c2ccc2ccccc21
survivor count [9]: 6 of 6 | survivor count [10]: 6 of 6

O=S(=O)(SC(S(=O)(=O)c1ccccc1)S(=O)(=O)c1ccccc1)c1ccccc1
T/C (dose: 50.0 mg/kg/injection, schedule: Q01DX009 (ip), vehicle: Klucel (hydroxypropylcellulose) (HPC)): 126 and 132 % of control | T/C [5]: 130, 131, 136 % of control | T/C [6]: 125 and 133 % of control | survivor count (dose: 800.0 mg/kg/injection, schedule: Q01DX009 (ip), vehicle: Klucel (hydroxypropylcellulose) (HPC)): 6 of 6

O=P(c1ccccc1)(c1ccccc1)c1ccccc1.O=P(c1ccccc1)(c1ccccc1)c1ccccc1.O=P(c1ccccc1)(c1ccccc1)c1ccccc1.O=P(c1ccccc1)(c1ccccc1)c1ccccc1.[Co+2].[O-][Cl+3]([O-])([O-])O
survivor count [10]: 3 of 6

CCCC(=O)OCc1cc(=O)n(C)c2c3c4c(cc12)c(C)cc(=O)n4CO3
T/C (dose: 6.25 mg/kg/injection, schedule: Q01DX009 (ip), vehicle: other): 148 % of control | T/C (dose: 12.5 mg/kg/injection, schedule: Q01DX009 (ip), vehicle: other): 143 % of control | survivor count (dose: 50.0 mg/kg/injection, schedule: Q01DX009 (ip), vehicle: other): 3 of 3 | survivor count (dose: 100.0 mg/kg/injection, schedule: Q01DX009 (ip), vehicle: other): 2 of 6 and 2 of 3 | survivor count (dose: 200.0 mg/kg/injection, schedule: Q01DX009 (ip), vehicle: other): 0 of 6

CC(=O)OC1CCN(C)CC1CCl (stereo unspecified)
survivor count [4]: 6 of 6 | survivor count [11]: 2 of 6

COc1ccc2ncc(COC(=O)Nc3ccccc3)c(COC(=O)Nc3ccccc3)c2c1
survivor count [12]: 6 of 6 | survivor count [13]: 6 of 6

O=C1CNC(=O)N1CN1CCOCC1
T/C [12]: 126 % of control | T/C [13]: 128 and 129 % of control

CC(=O)Oc1[nH]c(=O)c2cccc3c2c1CCC3
T/C [10]: 125 and 131 % of control

C[C@]12C=CC(=O)C=C1CC[C@@H]1[C@@H]2CC[C@@]2(C)[C@H]1CC[C@]2(C)O
survivor count [2]: 5 of 6 | survivor count [7]: 0 of 6

Cc1ccc(C[n+]2ccc3c([N+](=O)[O-])cccc3c2)cc1
T/C (dose: 12.5 mg/kg/injection, schedule: Q01DX009 (ip), vehicle: saline with Tween-80): 137 % of control | T/C (dose: 25.0 mg/kg/injection, schedule: Q01DX009 (ip), vehicle: saline with Tween-80): 127 % of control | T/C [9]: 137 % of control | survivor count [9]: 5 of 6

Cc1ccc2ccc3ccc(C)nc3c2n1.O=[N+]([O-])O.O=[N+]([O-])O.[Cu]
survivor count (dose: 25.0 mg/kg/injection, schedule: Q04DX002 (ip), vehicle: saline): 1 of 6 | survivor count (dose: 100.0 mg/kg/injection, schedule: Q04DX002 (ip), vehicle: suspension in saline): 0 of 6 | survivor count (dose: 200.0 mg/kg/injection, schedule: Q04DX002 (ip), vehicle: suspension in saline): 0 of 6 | survivor count (dose: 400.0 mg/kg/injection, schedule: Q04DX002 (ip), vehicle: suspension in saline): 0 of 6

c1ccc2c3c(ccc2c1)OP1(=NP(N2CC2)(N2CC2)=NP(N2CC2)(N2CC2)=N1)Oc1ccc2ccccc2c1-3
T/C (dose: 200.0 mg/kg/injection, schedule: Q04DX002 (ip), vehicle: Klucel (hydroxypropylcellulose) (HPC)): 129 % of control | T/C (dose: 400.0 mg/kg/injection, schedule: Q04DX002 (ip), vehicle: Klucel (hydroxypropylcellulose) (HPC)): 133 % of control

CCOC(=O)C(=O)Cc1nc2ccccc2nc1C
survivor count [8]: 6 of 6

CC(C)(C)C1=CC2(C(C)(C)C)OC2C(=O)C1=O (stereo unspecified)
survivor count (dose: 50.0 mg/kg/injection, schedule: Q01DX009 (ip), vehicle: saline): 0 of 6 | survivor count [4]: 0 of 6 | survivor count [11]: 0 of 6

CCN(CC)CC.[CH-]1CCCCC1.[CH-]1CCCCC1.[CH3-].[Cl-].[Cl-].[Sn+4]
survivor count (dose: 25.0 mg/kg/injection, schedule: Q01DX005 (ip), vehicle: saline): 3 of 6 | survivor count (dose: 50.0 mg/kg/injection, schedule: Q01DX005 (ip), vehicle: saline): 0 of 6 | survivor count (dose: 100.0 mg/kg/injection, schedule: Q01DX005 (ip), vehicle: saline): 0 of 6 | survivor count (dose: 200.0 mg/kg/injection, schedule: Q01DX005 (ip), vehicle: saline): 0 of 6

CCN(CC)[Si](C)(C)C
survivor count (dose: 240.0 mg/kg/injection, schedule: Q01DX005 (ip), vehicle: saline): 0 of 6

Nc1nc(N)c2cc(CCc3ccccc3)ccc2n1
survivor count (dose: 200.0 mg/kg/injection, schedule: Q04DX003 (ip), vehicle: saline with Tween-80): 0 of 6

O=C1CN(Cc2ccc3c(c2)OCO3)NO1
T/C [1]: 128 % of control

Reference: PubChem BioAssay AID330 (DTP/NCI, 2004)
